Test results: the supplement of paper PMC11006884
The list shows a part of the results, in another mix than the full data.

compound: COC(=O)C#Cc1ccccc1 [methyl 3-phenylpropiolate]; assay: log2 ratio of iodoacetamide-alkyne labeling of the cysteine site, DMSO over compound (competition); higher = stronger covalent engagement of the cysteine by the compound, active = 1 or more; settings: 500 µM; treatment time 1 h; system: HEK293T cell lysate
Method in brief: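 Three replicates, each with duplicate channels, were prepared from HEK293T lysate (2 mg/mL) treated with vehicle or electrophile at 500 µM for 1 h at ambient temperature. Iodoacetamide alkyne was then applied for 1 h, and samples were clicked to sCIP-TMT reagents, pooled, trypsin-digested overnight at 37 °C, enriched on streptavidin, acid-eluted and analysed on Orbitrap Eclipse LC-MS/MS with FAIMS, with FragPipe quantification. The log2 competition ratio per cysteine is the mean control-channel divided by the mean compound-channel reporter intensity. Cysteines quantified in only one replicate were left out.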

Target	log2 ratio of iodoacetamide-alkyne labeling
CAST C661 (UniProt P20810)	inactive: 0.385
SON C1551 (UniProt P18583)	inactive: 0.355
TKT C41 (UniProt P29401)	inactive: 0.0725
PEBP1 C133 (UniProt P30086)	inactive: 0.0655
RRM1 C790 (UniProt P23921)	inactive: 0.627
MPG C56 (UniProt P29372)	active: 1.66
UniProt P19784_C336	inactive: 0.273
COMT C241 (UniProt P21964)	inactive: 0.194
LAP3 C313 (UniProt P28838)	inactive: 0.196
CSRP1 C122 (UniProt P21291)	inactive: -0.0432
LAP3 C335 (UniProt P28838)	inactive: -0.0616
UniProt P22413_C807	inactive: 0.133
SFPQ C297 (UniProt P23246)	inactive: -0.122
FLNA C1997 (UniProt P21333)	inactive: 0.0962
ECHS1 C62 (UniProt P30084)	inactive: 0.0975
U2AF2 C429 (UniProt P26368)	inactive: 0.00353
CHM C564 (UniProt P24386)	inactive: -0.208
COMT C238 (UniProt P21964)	inactive: 0.176
FBL C268 (UniProt P22087)	inactive: 0.27

Target	log2 ratio of iodoacetamide-alkyne labeling
GART C93 (UniProt P22102)	inactive: 0.192
ACO1 C369 (UniProt P21399)	inactive: 0.121
UniProt P20719_C233	inactive: 0.162
FLNA C717 (UniProt P21333)	inactive: 0.289
PML C57 (UniProt P29590)	inactive: 0.184
VDAC1 C127 (UniProt P21796)	inactive: 0.0443
VARS C381 (UniProt P26640)	inactive: 0.329
PFKL C351 (UniProt P17858)	inactive: 0.381
UniProt P27361_C271	inactive: 0.361
RPL10 C71 (UniProt P27635)	inactive: 0.561
SCP2 C495 (UniProt P22307)	inactive: 0.137
VARS C917 (UniProt P26640)	inactive: 0.429
UniProt P25098_C340	inactive: 0.034
LAP3 C462 (UniProt P28838)	inactive: -0.162
UniProt P28290_C901	inactive: 0.884
LMNB1 C110 (UniProt P20700)	inactive: -0.0185
RPL7 C186 (UniProt P18124)	inactive: 0.0839
EEF1G C266 (UniProt P26641)	inactive: 0.0542

Given comma-delimited: entries from further up.
Target,log2 ratio of iodoacetamide-alkyne labeling
VARS C381 (UniProt P26640),inactive: 0.329
PFKL C351 (UniProt P17858),inactive: 0.381
UniProt P27361_C271,inactive: 0.361
